# Measured values: PubChem BioAssay AID1508600 (Functional Genomics Laboratory (NCATS/FGL), 2020)
# Screen size: about 53,000 sequences; about 3,700 (7%) were called active.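 Rule for the calls: active = gene knockdowns whose robust z-score for IL-1 alpha signal is at least 2 or at most -2, so actives lie on both sides; inactive = the rest.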 This is one part of the list.
# Assay: Components of the Cytosolic LPS Sensing Pathway: Gene Identification via Genome-wide siRNA Screen;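 note: robust z of the log signal after scaling to non-targeting control siRNA wells of the plate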
# Details: RAW264.7 macrophages, IL-1a HTRF, actives lie on both sides, screened at 100 nM (by protocol), cells primed 5 h with Pam3CSK4 first
# Method in brief: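 Using IL-1a HTRF as read-out, the screen measured release from RAW264.7 cells after 48h siRNA knockdown (100 nM), 5 h Pam3CSK4 priming and 24 h cytosolic LipidA. Values were expressed relative to negative-control wells as robust z-scores.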
row,Sequence,z-score
1,GGUGAAAGCUUUGAUUCUGTT against Zbtb20,inactive: -0.564
2,GGAAAUACGGCUUCAUCUATT against Cyp26a1,inactive: 0.935
3,CCCGAUUAGGUGUUGAUAUTT against Slc25a31,inactive: 0.425
4,GGCCAUCCAGAAUUACAUGTT against Vash2,inactive: 1.08
5,GCAUUGUUUCUCUGGUAAUTT against Cd200,inactive: -1.11
6,GCAAAGCUUAAAAGUGAAGTT against Tmem203,inactive: -1.68
7,GGAGACAUGCAAUGAACUUTT against Ica1l,inactive: 1.02
8,GGACAUAGUGUGAUAUCUUTT against Man1c1,inactive: 0.128
9,GGACAAGAAAAUGCUAUCATT against Pcsk1,inactive: 0.154
10,CCCGAGUAACUUUUAUAUCTT against Tdrd1,inactive: 0.769
11,GGAAAAAUUUAAAGAGGUCTT against Dnajb4,inactive: -0.0646
12,CCUGACGAAAAUGUUUUAATT against Lrp12,inactive: 1.04
13,GGUCCUUGUACAACCACCCTT against Acd,inactive: 0.516
14,CGUCUGAACACUUCAAGACTT against Vamp8,inactive: 0.094
15,GCUCAAUGGCUACACGGAUTT against Ace,inactive: 0.0665
16,GGCAGUUUUGCAUGUGUGATT against Zfp654,active: -2.23
17,GGUGGGAAUUACCUUACUUTT against Phf20,inactive: 0.905
18,GCUUGUAGACUUCCUCCUGTT against Olfr524,inactive: 0.288
19,GGUUUUCCACUCUUAUGGCTT against Vmn1r49,inactive: -1.24
20,GGAGGAGACUGAAAUUCCATT against Cavin3,inactive: 0.0827
21,CCAACUUUUAGUCUAGAAATT against Mat2a,inactive: 0.766
22,GCUACUUGGAGUCUAUUUGTT against C1ql3,inactive: 0.48

row,Sequence,z-score
1,GGAAAAGUUUCCACAAACCTT against Iqce,inactive: -0.762
2,CCUAUGGCCAUUAUGAGCCTT against Rcn3,inactive: -1.15
3,GGAUUUCAUUAAGCUGAAGTT against Macrod1,inactive: -1.47
4,GGUGGAUUUCUACUAUGAUTT against Abcf3,inactive: -0.124
5,CCUGAAAUGCUAAGACUACTT against Gm5142,inactive: 1.15
6,GGAUGCAGAGACCUAUUUCTT against Cacng5,inactive: -0.158
7,GGCUUUAAGAACUGGGCCCTT against Clec10a,inactive: 0.258
8,GCAUUGGCUGUACUACUAUTT against Psg18,inactive: 0.287
9,GAGCAUCUGUGUAGAAGUGTT against Thrsp,inactive: 0.786
10,GGCAAAUUAGAGGAAAAGUTT against Zfp354a,inactive: 0.118
11,GGCCACCGUUCAAAAAAUUTT against Dctn5,inactive: -0.226
12,GGACCAUGCACGAUACUCUTT against Foxn1,inactive: 0.465
13,GGCAAAUCAAGCAGAAAAUTT against Ncor1,inactive: 0.739
14,GGAAAAAGAGUCCUUCAUGTT against Minar2,inactive: 1.19
15,GGCAUCACUUUCUUUCCUUTT against Abhd10,inactive: -1.2
16,GGUAAUUGAAAGAGGAGAGTT against Vamp4,inactive: 0.38
17,GGUGCCUGACCAAAAAGGATT against Samd12,inactive: 1.43
18,CCCGUUGUAUACAAAUACCTT against Tmem41b,inactive: 0.579
19,GGAACUGAAAAAGAAAACATT against Ist1,inactive: -1.04
20,GGGAUGUGUGAAUAAAAAATT against Elovl7,inactive: -0.292
21,CGCAUUCUACUCCUAUGAGTT against Pdcd2,inactive: 1.16
22,GCCCUACCAAUACUACAGUTT against Lamc3,inactive: -0.0165

# Looked up above:
# z-score with GGAUUUCAUUAAGCUGAAGTT against Macrod1 is entered as inactive: -1.47
# z-score with GCAAAGCUUAAAAGUGAAGTT against Tmem203 is entered as inactive: -1.68

# (list continues)

row,Sequence,z-score
1,GGAAACUUUUGGAAGACUATT against Jmjd6,active: 2.02
2,GGCCGGUUAGCUAAUCAGATT against Armc10,active: 2.03
3,GGAAAAAUGCUACAUACAATT against Slc15a2,inactive: 0.864
4,CGACCCAAUCGAUGUUUGUTT against Ppa1,inactive: -0.281
5,CCACCCUCUUCAUAACAGUTT against Med27,inactive: -0.82
6,GGAGAACAAGAUCCUGGAGTT against Ccdc39,inactive: 1.73
7,GCGGUCAACUGGAAACUAATT against Dnaja3,inactive: 0.735
8,GCUGACUUUUUGACAUUGUTT against Rab39,inactive: 0.246
9,GGCAGAAAUGCUGGAGAUUTT against Ncald,inactive: 1.19
10,GGUGAGGAUUGAUAAUGAGTT against Rit2,inactive: -1.46
11,GGUGUUCCCGGUUGAAUAATT against Selenow,inactive: -0.0777
12,GCUCUUCAUUGAAUCUCGGTT against Per1,inactive: 0.136
13,GCAUGUUUAGAACUAGCUCTT against Zfp87,inactive: 0.76
14,GGGACAAUUAGAAAGACAUTT against Mtif2,inactive: 0.982
15,GGCUAUGAGAAUCACAUAATT against Tpo,inactive: -1.49
16,CCAUUCGAGAUGAGAAGAATT against Gcc1,inactive: -0.287
17,CCAUCAAUCCUAAUGCUUATT against Ccin,inactive: -0.376
18,GCUCUAUAUCCAGGAAACUTT against Krtap6-2,inactive: 0.0521
19,CCAGUGAAAAAAAUGCCAUTT against Olfr344,inactive: -0.393
20,CGGUUUACGCCACAAAAGUTT against Rprm,inactive: -0.724
21,GGCAAACAAAUGGUUUGUUTT against Zfp324,inactive: -0.544
22,GGCAUAUGCUGGAGUUAUCTT against Emsy,inactive: -0.309

row,Sequence,z-score
1,GGAGACUUAAGAUGUUACATT against Tafa5,inactive: -0.0542
2,GCAAUGGAACUAUUAUUCATT against Cd28,active: 2.48
3,GGAAAAACAUCUCUUGCUUTT against Calcb,inactive: 0.361
4,GCUUAUAGAGGAGAACCGUTT against Thrb,inactive: -0.159
5,GGACCAGCUCAGUCAAACATT against Slc39a4,inactive: -0.128
6,GGCGACAAGCAUUAUCAUCTT against Ablim1,inactive: 1.72
7,GGCUUCUGAUACAUAUAUCTT against G6pc2,inactive: 0.195
8,GGUGAAUGCACCUUGACCCTT against Spag16,inactive: -0.506
9,CACGAUGUGGAGCAUGUGCTT against Pfdn5,inactive: -0.271
10,UGGAGGAUUACUCUUCUGCTT against Sp140,inactive: -1.61
11,GCAUCAUAAUGGGAUGCUGTT against Qrfp,inactive: -0.313
12,CCAUUGCCAACAACUAGAUTT against Cela3b,inactive: 1.07
13,GGGAAGUCUGGACAAUAUGTT against Ppm1n,inactive: -1.06
14,GGGUAAGAACUUAUUAUUCTT against Ecd,inactive: 0.609
15,GGUUUGCCUGUGCUGAUAUTT against Olfr549,inactive: -0.617
16,GGGUUUUACUAUGUAGCUCTT against Olfr94,inactive: -0.34
17,GCUUGCUGACAUGAUUCCUTT against Ndrg2,inactive: 0.321
18,GCGAAUCUUUCAUAACAGUTT against Lrrc59,inactive: 0.581
19,CGGCCUCAGUUUAGAAUUATT against Plat,inactive: 0.485
20,CGUCAUGCAUUUUUCUAAATT against Trim24,inactive: 0.489
21,GGUCCCUGUGAACAAGCUGTT against Serpinf1,inactive: 1.12
22,GCUUCACGAUUAAAACUAATT against Ltb4r1,inactive: 0

# Given bar-delimited: entries from further up.
row | Sequence | z-score
1 | GGUGAAAGCUUUGAUUCUGTT against Zbtb20 | inactive: -0.564
2 | GGAAAUACGGCUUCAUCUATT against Cyp26a1 | inactive: 0.935
3 | CCCGAUUAGGUGUUGAUAUTT against Slc25a31 | inactive: 0.425
4 | GGCCAUCCAGAAUUACAUGTT against Vash2 | inactive: 1.08

# Fetched one by one from the entries so far, two records:
row,Sequence,z-score
18,GCGAAUCUUUCAUAACAGUTT against Lrrc59,inactive: 0.581
5,GGACCAGCUCAGUCAAACATT against Slc39a4,inactive: -0.128

# Continuation:

row,Sequence,z-score
1,GCCUCACAGAUUGAUAAUATT against Akt3,inactive: -1.23
2,GGGAGCAGAUUGAAACAGUTT against Eri2,inactive: -0.546
3,GUAAGGUAUUCAGUGACCUTT against Olfml2a,active: -2.23
4,GGUCAAAUGGUGAAAAAGUTT against Stxbp5l,inactive: 0.152
5,GGAUGCUGUUUACCUAUACTT against Slc51a,inactive: -1.14
6,GGCAGUACCUUACAUUUAATT against Galnt7,inactive: 1.61
7,CCGCCCGCUCAACACUAAUTT against Zfp36l3,active: -2.39
8,GGAGAGGAGAGUCUUGGAATT against 3110082I17Rik,inactive: 0.0202
9,GGCGGUCAAGGGAAAAACATT against Tcf7,active: 2.19
10,GGUCUGUAUCCCACUUUUCTT against Dalrd3,active: -2.15
11,CCAAUAUGCUCAGUAUUACTT against Eya4,inactive: -1.36
12,GGAGUUCUUGGAGCAUCAGTT against Zfp526,inactive: -0.23
13,GUAUGCCCACAUUCCAGACTT against Npff,inactive: 0.768
14,GGUUUCGAACUGAUGAAGCTT against Nemf,inactive: 0.284
15,GGUAGCUAUUAUCAACAACTT against Prss21,inactive: 1.38
16,GGUUGACUGAAUGAUGGAATT against Tcl1b3,inactive: -0.724
17,GGGACCAAAGGAAACUUCATT against Eif2s3y,inactive: -0.14
18,GCCUGUGUGAUUGCUUCAGTT against Plac8,inactive: -0.00919
19,CCUCCUGUUUUUUUCUGUGTT against Olfr96,inactive: 0.646
